Experimental data reported in patent publication US20160280799A1.
No constants are given. Whether binding was seen depends on the method and setting. Some results given as binding are weak or reduced against the parent protein; the word gives no strength.

Protein sequences, listed by entry. Tags and fused reporters are not part of them. Lines headed by an entry give the natural chain unless they say otherwise; changes in a name come on top. Chains listed by the source or under a name are the forms on record and can include a tag or linker.
human IgE (P01854, form named): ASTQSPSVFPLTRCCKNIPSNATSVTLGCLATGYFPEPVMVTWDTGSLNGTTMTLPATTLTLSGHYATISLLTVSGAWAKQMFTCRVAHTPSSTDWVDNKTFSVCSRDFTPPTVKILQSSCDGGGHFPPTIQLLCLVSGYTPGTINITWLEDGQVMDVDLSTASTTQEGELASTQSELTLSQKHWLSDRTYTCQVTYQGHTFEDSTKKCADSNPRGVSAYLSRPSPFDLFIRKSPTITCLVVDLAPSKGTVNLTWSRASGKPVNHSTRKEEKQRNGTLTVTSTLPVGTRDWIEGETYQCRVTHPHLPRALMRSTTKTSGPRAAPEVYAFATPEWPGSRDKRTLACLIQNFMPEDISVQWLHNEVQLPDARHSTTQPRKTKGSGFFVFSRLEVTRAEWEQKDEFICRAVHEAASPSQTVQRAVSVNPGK

target: human IgE (human) (UniProt P01854); assay: ELISA, solid phase coated human IgE

| binding | Binder |
| --- | --- |
| binds | VHH#4G12 (VHH) VHH: QVQLQESGGGVVQPGGSLRLSCSVSGTSISNRVMAWFRQAPGKQRDFVAYITSAVNTDYADFVKGRFTISRDNAQNMVHLQMNSLKPEDTAVYYCNVLKDTWFRTPYDYYWGQGTQVTVSS |
| binds | VHH#2C1 (VHH) VHH: QVQLQESGGGLVQPGDSLRLSCVVSGRTLSYSSLAWFRQAPGKERDFVAALSLTTYYADSVKGRFTISRDNAKNTVYLQMNSLKPDDTADYFCATARTRTDYAPLLSAASTYDAWGQGTQVTVSL |
| binds | VHH#2B6 (VHH) VHH: QVQLQDSGGGLVQAGGSLRLSCAASGVTFSSYAMGWFRQAPGKEREFVASITWIGGGTYYADSVKGRFTISRDHAGNTVYLQMNTLKPDDTAVYYCALDRRSSTYYLMKGEYDYRGRGTQVTVSS |
| binds | VHH#2H11 (VHH) VHH: QVQLQESGGGLVQAGGSLRLSCAASGVTFSSYAMGWFRQAPGKEREFVASITWTGTGTYYADSVKGRFTISRDHAGTTVYLQMNSLKPEDTAVYYCAVDRRSSTYYLMKGEYDYRGRGTQVTVSS |
| binds | VHH#2D4 (VHH) VHH: QVQLQESGGGLVQAGGSLRLSCAASGLTFSTYAMGWFRQAPGKEREFVAAVSYSGSYYADSVKGRFTISRDNAKNTVYLQMASLKPEDTAVYYCAARNRGYSTYAGVYDYWGQGTQVTVSS |
| binds | VHH#2G4 (VHH) VHH: QVQLQDSGGGLVQAGDSLRLSCAASGLTFLEHVMAWFRQTPGKEREFVGAIDWSGRRITYTDSVKGRFTISRDNAKNTVYLQMNTLKPEDTAVYYCAADRTYSYSSTGYYYWGQGTQVTVSS |
| binds | VHH#2D12 (VHH) VHH: QVQLQESGGGLVQAGDSLRLSCAASGLTFLEHVMAWFRQTPGKEREFVGAIDWSGRRITYTDSVKGRFTISRDNAKNTVYLQMNTLKPEDTAVYYCAADRTYSYSSTGYYYWGQGTQVTVSS |
| binds | VHH#4A2 (VHH) VHH: QVQLQDSGGGLVQAGGSLRLSCEASGRTISSYAMAWFRQAPGKEREFVASISSSGVSKHYADSVKGRFTISNDKVKNTVYLQMNSLKPEDTAVYFCAAKYRYYSSYYTKSGDYDYWGQGTQVTVSS |
| binds | VHH#4C5 (VHH) VHH: QVQLQESGGGLVQAGGSLRLSCAASGRTLSSYTMAWFRQAPGKEREFVASISSSGISTYYADSVKGRFTISRDIAKNTVYLQMNSLKPEDTAVYYCAAKYRYYSTLYTKSGEYDYWGQGTQVTVSS |
| binds | VHH#2C3 (VHH) VHH: QVQLQDSGGGLVQPGGSLRLSCRASGRIFRINAMGWYRQAPGKQRELVATITSTGSTNFADSVKGRFTIYRDGAKRTVDLRLNSLKPEDTAVYFCNADVREYDLGPWRQYWGQGTQVTVSS |
| binds | VHH#2H3 (VHH) VHH: QVQLQESGGGLVQAGGSLRLSCAASGRSSRYYAMGWFRQGPGKEREFVAAVNWNGDSTYYADSVKGRFTISRGNAENTAYLQMNSLVPEDTAVYYCAMRMNAGLGYSAASYQYWGQGTQVTVSL |
